According to the supplement of paper PMC4604168 (melanoma cell lines):
This is one part of the list. Many values rest on one well or one pass, so single values are uncertain.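 Imaging used 1,536-well plates; nuclei positive for cleaved PARP by antibody were divided by total DNA-stained nuclei to yield the apoptosis fraction. Doses for screening kept most cells viable, and cell lines differ markedly in resting and induced cleaved-PARP levels.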

system: WM1745; experiment: cleaved PARP positive nuclei fraction relative to DMSO control; melanoma cells; higher = more apoptosis; conditions: library dose: low library concentration; 72 h

Structure (SMILES)	cleaved PARP positive nuclei fraction [%]
CNC(=O)c1cc(Oc2ccc(NC(=O)Nc3ccc(Cl)c(C(F)(F)F)c3)cc2)ccn1 [sorafenib] + Oc1nc(-c2ccc(C(F)(F)F)cc2)nc2c1CSCC2 [XAV939] (first compound 0.4 µM, partner dose 2 µM)	99.6
O=C(O)[C@@H]1[O][Sb](=[O])([O][Sb]2(=[O])[O][C@H]([C@H](O)CO)[C@H](O)[C@H](C(=O)O)[O]2)[O][C@H]([C@H](O)CO)[C@@H]1O (some centres undefined) [stibogluconate] + C=CCn1c(=O)c2cnc(Nc3ccc(N4CCN(C)CC4)cc3)nc2n1-c1cccc(C(C)(C)O)n1 [MK1775] (first compound 2 µM, partner dose 0.02 µM)	160
CC(C)C[C@H](NC(=O)[C@H](Cc1ccccc1)NC(=O)c1cnccn1)B(O)O [Bortezomib] + O=c1cc(-c2cccc3c2Sc2ccccc2S3)oc(N2CCOCC2)c1 [KU55933] (first compound 0.001 µM, partner dose 1 µM)	185
Cn1c(=O)n(-c2ccc(C(C)(C)C#N)cc2)c2c3cc(-c4cnc5ccccc5c4)ccc3ncc21 + OCCn1cc(-c2cnc3nnn(Cc4ccc5ncccc5c4)c3n2)cn1 [PF04217903] (first compound 0.004 µM, partner dose 1 µM)	85.3
Cn1c(=O)n(-c2ccc(C(C)(C)C#N)cc2)c2c3cc(-c4cnc5ccccc5c4)ccc3ncc21 + c1cc(-c2cnn3cc(-c4ccc(OCCN5CCCCC5)cc4)cnc23)ccn1 [Dorsomorphin] (first compound 0.004 µM, partner dose 0.4 µM)	91
O=C(O)c1ccc2c(c1)nc(Nc1cccc(Cl)c1)c1ccncc12 + COc1ccc(-c2ccc3c(N4CCOCC4)nc(N4C[C@@H](C)O[C@@H](C)C4)nc3n2)cc1CO [KU0063794] (first compound 0.4 µM, partner dose 0.02 µM)	97.4

Some values from the list.
cleaved PARP positive nuclei fraction [%], CC(C)C[C@H](NC(=O)[C@H](Cc1ccccc1)NC(=O)c1cnccn1)B(O)O [Bortezomib] + O=c1cc(-c2cccc3c2Sc2ccccc2S3)oc(N2CCOCC2)c1 [KU55933] (first compound 0.001 µM, partner dose 1 µM) is entered as 185
cleaved PARP positive nuclei fraction [%], O=C(O)c1ccc2c(c1)nc(Nc1cccc(Cl)c1)c1ccncc12 + COc1ccc(-c2ccc3c(N4CCOCC4)nc(N4C[C@@H](C)O[C@@H](C)C4)nc3n2)cc1CO [KU0063794] (first compound 0.4 µM, partner dose 0.02 µM) is entered as 97.4

system: WM3526; experiment: as above; conditions: library dose: low library concentration; 72 h

Structure (SMILES)	cleaved PARP positive nuclei fraction [%]
O=C(O)[C@@H]1[O][Sb](=[O])([O][Sb]2(=[O])[O][C@H]([C@H](O)CO)[C@H](O)[C@H](C(=O)O)[O]2)[O][C@H]([C@H](O)CO)[C@@H]1O (some centres undefined) [stibogluconate] + OCCn1cc(-c2cnc3nnn(Cc4ccc5ncccc5c4)c3n2)cn1 [PF04217903] (first compound 2 µM, partner dose 1 µM)	108
C[C@@H](Oc1cc(-c2cnn(C3CCNCC3)c2)cnc1N)c1c(Cl)ccc(F)c1Cl [Crizotinib] + Oc1cc(-c2nc(-c3ccccc3)[nH]c2-c2ccncc2)ccc1Cl [L779450] (first compound 0.2 µM, partner dose 0.2 µM)	118
C[C@@H](Oc1cc(-c2cnn(C3CCNCC3)c2)cnc1N)c1c(Cl)ccc(F)c1Cl [Crizotinib] + CCCCCCCCCCCC1=C(O)C(=O)C=C(O)C1=O [Embelin] (first compound 0.2 µM, partner dose 1.2 µM)	131
Nc1ncn([C@H]2C[C@H](O)[C@@H](CO)O2)c(=O)n1 [decitabine] + O=C(Nc1ccccc1)c1cc([N+](=O)[O-])ccc1Cl [GW9662] (first compound 0.1 µM, partner dose 2 µM)	87.3
C[C@@H](Oc1cc(-c2cnn(C3CCNCC3)c2)cnc1N)c1c(Cl)ccc(F)c1Cl [Crizotinib] + O=c1cc(-c2cccc3c2Sc2ccccc2S3)oc(N2CCOCC2)c1 [KU55933] (first compound 0.2 µM, partner dose 1 µM)	252
CS(=O)(=O)CCNCc1ccc(-c2ccc3ncnc(Nc4ccc(OCc5cccc(F)c5)c(Cl)c4)c3c2)o1 [lapatinib] + OCCn1cc(-c2cnc3nnn(Cc4ccc5ncccc5c4)c3n2)cn1 [PF04217903] (first compound 0.8 µM, partner dose 1 µM)	63.6
Cc1cc(Nc2cc(N3CCN(C)CC3)nc(/C=C/c3ccccc3)n2)n[nH]1 + N#Cc1c(O)c2c(-c3ccc(-c4ccccc4O)cc3)csc2[nH]c1=O [A769662] (first compound 0.04 µM, partner dose 2 µM)	84.2
CCCS(=O)(=O)Nc1ccc(F)c(C(=O)c2c[nH]c3ncc(Cl)cc23)c1F + COc1cc2ncnc(Nc3ccc(Oc4ccccc4)cc3)c2cc1OC [SrcI1] (first compound 0.08 µM, partner dose 2 µM)	115
